Consider 16 sequences from PMC5402319.

Negatives hold for the conditions tested. Protein sequences can lack the tags named with them. The exact form of at least one protein or probe is not confirmed.

The target of one series is T1, His6-σ8 (SigB-like sigma factor) (Streptomyces avermitilis) (UniProt Q82PY0).
T1 sequence (looked up): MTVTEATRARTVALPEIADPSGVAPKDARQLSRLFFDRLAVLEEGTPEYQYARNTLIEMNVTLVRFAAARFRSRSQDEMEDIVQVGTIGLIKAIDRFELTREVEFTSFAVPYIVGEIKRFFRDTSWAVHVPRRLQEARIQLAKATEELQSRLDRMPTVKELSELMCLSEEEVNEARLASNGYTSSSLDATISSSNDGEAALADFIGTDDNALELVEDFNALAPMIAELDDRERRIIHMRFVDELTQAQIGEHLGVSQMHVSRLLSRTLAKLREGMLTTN
The series is described as follows: EMSA. The note with it: 0.25-1 uM protein; EMSA with 0.15 nM DIG-labeled probe, 0.25-1 uM His6-σ8, ~300-fold excess unlabeled competitor; pH and temperature not given (as in Sun et al., 2016); recombinant protein; residues 1-279; protein details: N-terminal His6 (pET-28a); label: 3' DIG; probe letters rebuilt from the primers and the genome. On the technique in general: In EMSA bound probe runs differently from free probe, usually more slowly.
For “TGCTCACCACCAACTGACCCCACTCGTTCGCAACACACCGGCGGCGCTCCGCACCCTGCGAGGGTGGGGAGCGCCGCCCGTTCATTCCAGCAGCCGGGTACGAGGCGGCCGAACGCAAAATCGCTCGGCCGGCCGAGCGGACGCACTCGGCTTGCCCGTCGCCTTCCGCGTCCAGACCCTCGAAGCTGGGCCCGATCCCCACCAGGCGCCGGATGTCGGCATCGACCTGGGCGTCACCCTGCCCATCACTCTGTCGGAGGGCGAAACGCACGAGCCCGGCGAATGGCTGACCCGCAAGGAGCAGGCCGGGCGGGCCCGCGTGATGCACGCAACGCAATCGGGGTGATCTCCGCGTGGAAGGATCTCGACGGGAGTACCGGCGCGGGGATCGGGGATGAACGGAATGATCGGG (double strand) [sav_742p]”, the binding result is given as “binds”.

Still in this series, the particulars now being: EMSA with 0.15 nM DIG-labeled probe, 0.25-1 uM His6-σ8, ~300-fold excess unlabeled competitor; pH and temperature not given (as in Sun et al., 2016); recombinant protein; residues 1-279; protein details: N-terminal His6 (pET-28a); label: 3' DIG; probe letters rebuilt from the primers and the genome.
As for “ACATCAGACGAACGCCTCGTGGACGTAGCACCAGCGCCAATCCTCGCCGGGCTGGAACGACTGCACGATCGGATGGGCGTCGGCAGCCGCGTGCCTACGCGCGTGCTTGTTCGGCGAGGAGTCACAGCAGCCGACGTGCCCGCAGGTCAGGCAGAGCCTCAGGTGGACCCACGGGGAGCCGAGCAGCAGACACTCCTGACACCCTTCTGG (double strand) [trxB2p]”, the binding result is given as “binds”.
Consider “CAGCGCCAGCAGATTCTCCGGCCGGTCATCGACCAGGAGGATCTTGGCCTTCTGCACCATGGCCCGCCCTCCTCGCCCCGGCATGGGGCCTCCCCTGTCCGCAGGACTTGGGGAAGCACCGGGCGCCGCCCCAGGGGACGACTCCCTTGCGCCGCCCGTCCTTGTGCCGGTCATGGTAGCCGCACCCCGCCTGTCGCCACACCCTGTCACCGCGATGTCACTGTGCACGTAGCAGAAACGTAGCGGGAGACCAGAAGGTTCCCCGAATCCCGCACTCCTACACGGCGTCCGACACACTCAGTCAGCAACTCCGTGTGAACGTTTCGCGTTCCCGTCACTCCGCACGCATCCACTGTTCCA (double strand) [osaBp]”, for which the binding result is given as “binds”.
Regarding “CGGTCACCACTGTTTCGTTCCGGAGGGTGTGCGGACCGTGTGCGAAGCTGCCGAACTGTTATGGCCTGGTTCAACCAGGGTGAAACACTGGGCAGGCTTCGTAGGAAGGCCGGGGCAGGCCGCGCGTCTGCCGTGTACGACCGGCGGCAGCACCTGGCGCGCCGAGTACTAGGACGCGGCAGGCCGAGCAGAAGCGCAGAAGCATCATCAGAAGTATCAGCAAGCCGAGCACGCACAGCAGTATTGGTCGACCCTGCGGGAGGGACACAGTGGAGTCTGGCG (double strand) [osaAp]”, the binding result is “binds”.
On to “CGTTCTCCTCGAGCCTACAGGCGAGCGGTGGTACCCGCTCCCGGGCCGGCTCATCCCAGATGTTCGGATGATTCCTCTCGTACTCGTGGGGCGACCGGACCCGTGCATTCCTGACTCGCCAGGCGCAGGCGTGGAGGCCCCCGGTTCGTCACCCTGGGGGTGCTCGAGCGCCTTCGTGCGCACGGGTGGGAAACCGGCCGAGGTCCCACCCCTACCTGAACGAACGTGATCCGGAGAGTCGACGCGGGCGCCGTACCGGGAGGAGTTCCCCATGGCCAAGGCAGTGGGCATCGACCTGGGCACCACCAACTCGGTGATCGCCGTGTGGGAG (double strand) [dnaK2p]”, for which the binding result is recorded as “no binding”.
Regarding “CTCACCTCGGGAAAGCACCCGGAGCCGAGCGGTGAGTGGCCGGCGATTCCATGGCCGCCGGTCTAGGGCCCGATGTCGTGGTCGTGAGCACGATTTCGGGGCCGCCGGTGTCGCGGAGCGCCGAACGCATGCCGGGCGGCATTGCGCAAGAGGGCCTTCTCGGTCATCAGGCCTGGTCCGGTTCGTATACGGAACATCCGTCCGGTTAGGCTCATGACATGCATGCCTGGCCCGCTTCTGAGGTCCCCGCCCTGCCTGGTGAGGGCCGCGACCTCCGGATCCACGACACCGCGACCGGCGGGGTAATACCCCTGCACCCCGGTCCCGTCGCCCGTATCTA (double strand) [mshCp]”, the binding result is reported as “binds”.
In the case of “GAAATGAATCGCCCATGACTTGACCCCCGATGTCTGGGTACGCAGAGCGGGCGGCCGACTCAGCTGGGGCGCGAGGAGCGGACAAGATGGACGGGGCTGCCTTGGGTACCACGGCCGCACTCTCTTCGGCACGCCGGTTCATTCCGTCGACGCGTGCCCTGGTGCGGGTCTCACCGCACCATGAGAAATTGACGGGCAAAAGGCCGCCTTCTCATATTTCGCCCCATGCGTTCGCCTGCCACAGCACTCGACACTCGGCCACCGCGACCGTGGCCGGCCAGACACGAAGGAAGCGTCTCCGATGAGCGAGGCCAACCCCCTCAAGCGAGCAGCACGGAA (double strand) [katBp]”, the binding result is given as “binds”.
With “GCCGACCAGCTCGCTCTCGACGACCGCGGTGGACAGGCCGGCCGCGCGGGTGCGGTCGGCGACGTTCTCCCCCACCGGACCGGCCCCGAGCACCACGACGTCGTACGCGATGGATTCCGTTTCCGTCATGGGGTCAGTCTGGTAGCTGGTGTGCGTGCTGGCCACACGGGTACGCGCGCGGAATACGGCGCCGGAGGGTGGCGTTGTGGACAGCGGCTTGCCCCGAGCCCCCGACACCAGGAAGAGGGAAACACGCC (double strand) [trxA3p]”, the binding result is “binds”.
With “GGAAAGCCGCTGGTCAGACGGCTCGTTCCGGACCCGGTACCGGTCGTCGGGGACCCGTCGCCGGTCCGCGGGGCGGGCCTCGTGGCGTCCGGAGCGTGCGCTCGCAAGGCGCGGGGAGGTCCGCGACGAGGCCCGCGAAGGGAGTCCCCCCGGTCCTTGCACCTTGGCGGAGGAGCTGCCGGGCCGTTCCCGCAGCACGGCGAGCGTGTGCGCCAGGCGACGCGAGGCAGGCAGAAATGCGAGTACAGGGCCTAAGATGGCGCGCCCCGGCCATCCCCTCGCGGTCGCCTCCTCCCGGGACCGCCCGACCCCGCGCCGTCGCCCGTCCCCCCACCAACGGCGCTGCGACGATGGACTCCC (double strand) [htpGp]”, the binding result was “no binding”.
The same measure, in the same setting: the value for “GGCTTGATGGCAACCTTGGAGCTGGCGGTCGTCACGATCCGACCTCCCCCTTCGGAGATCTCACGGGGTTAACTGTCTGAGGTGGCGACCAGGTCGATCCGTCGTCGCGGGTGCCGGACCTGCCCGTCGCTACTGGCACTCTCCAGTGGGGAGTGCCAGACCTGAGACTATGACCGCGGTTAGCACTCGGTCAAGCGGAGTGCCAAT (double strand) [groES1p]” was “no binding”.
Consider “GTTGGCTGCGTCACCTTTCGCATCATGCCGTACGGCACCGACAGGCACCCCGCCGACGCAGACGTGGCAGTTCAGAGTGCCCTTACGTAACAGAAGTAAACGGATTGTGAACTGGAGCACTCCTGAGTTTGACCCCTTCAAGAGGGGGCAGGCGCCGCGTCGGAGCAGAGCCCGTTGCATTTTCAATCGTCCGAGGGCCTCGCGACGCTCCAGGACGAGAGGT (double strand) [opuAAp]”, for which the binding result was “no binding”.
“TACGGCGATCATGGTTTCGCCGTCCCCAAACGGGCGCCCCTCGGCCAGGAGCAGGCCCTGGCGATCATCACGGACCGTGTTGTGGAGTGGACCGCGTCACTCGGGTAGGGCCCGGGAATGCGGTGTGGCTGACTGCTGTTGTGGCGAACAGAGAGTGTTCATCGTTCGTACGAGAGGAAGTCCGCCGCATGGGTTCGACCTTCTGCCCGAGCCGAAGCAGCGCCCGTGACCTGGAGTGGTCGGTGCTGCACGCGGCGAAGACCGCCCCGATTCGGGCGGCGGCCGGACCGGATCGTCGTCTATC (double strand) [sig22p]”: the binding result is listed as “binds”.
On to “TCCAGGACTTCGGGTTCGACCTGGAGGAGACGCGGCCCTTCGTGGAGTGTCTGCGGGCCGGCCACCCGGAGGGCGACTCGTGCCCGGCGTCGCTCGCGGTGTACCGGCGCAAGCTCGGCGAACTCGACGCGCTGATCGGCGAGTTGCAGGCCGTGCGGGCGCAGGTCGGCGACCAGCTGGCGCGGGCCGAGCTGGCCCGCGACGAGCTGGCGGCCGAGGCGGGGGTTCCGGGCGGTCCGGAGCCCGTGTGCGAACTGGGAGGGCAGACGCGGTGATCAAGGCGGCGGGCGTGACCGAAGTGAC (double strand) [sav_2810p]”, for which the binding result is recorded as “no binding”.
Take “TGGAGGCACAGCAGAGACGGCTGTACCCCCGCCGCCCTGCCTGGCCGCTTCGGCGCGCGCCTGCTCCGCCTTCGCCTTGGCCTCCTGGGCCGCCTTCACCGCGGCGAGGTCGACGACTCCGCTCATGGACATGTTCCGTGGCTGCATGAGTACATCCTCCCCCTTCCGCGCCCGCGTGTGAAAAGCGTTGTGAAAGCCAGACTTGGCACATGATGATCGGCGCCGGGTCCCCACCTGGCGCCAGTGGTCGTCGCTCGCGTGCGAGTCACCGCGCACGAGCTTTCGCTACGAGTCGTAGCGTAACTGTCCC (double strand) [trxA6p]”: the binding result was “no binding”.

The series is the same for the next values; noted with them: up to 1 uM protein; EMSA with 0.15 nM DIG-labeled probe, 0.25-1 uM His6-σ8, ~300-fold excess unlabeled competitor; pH and temperature not given (as in Sun et al., 2016); recombinant protein; residues 1-279; protein details: N-terminal His6 (pET-28a); label: 3' DIG; probe letters rebuilt from the primers and the genome.
Consider “ATGGTCGGGAACCTCCGCAATCCGGGCCGGGCGGCCCAGCTGTCGTGGCGATCTACTCCAGGAAACGTAGACCTTTTTCTGCCACTTGTCCGAGCTATGCAGACACCCCGATCCCCTAAGAAATGAACACCCTTGGGAACGGCACAGCCCAGGGGTGGATAGGGGTATTCGCCGCCGCCGCGCCGTCATTAGCTTTGAAGAGTTGAAGACGTTCAAGACATTGATGCCCGGCCGTCAGCGGATTTCTCGCGCTCCTTTCATTCTTCGACGCTGCATTGCAGCTCTCATCATGTCCGCACGGCCGCCGAGCATTGCCTAGCGGTGAGGACACAG (double strand) [aveA1p]”, for which the binding result is “no binding”.
For the sequence “GAAACTCCCTGCATGATGTTCTTATTTCTCCTTTTTCCAAGAAAGCGTGTCTCGGGGATTTCGATTGCTTGAGCAAAAGCGGTCGCGGCCGTGCGGGCTGGGTTGATCAGCATCAGAGGTGATGGTCAGTGTTATGAATTTGCCCTGGTGGGCGGGGTAGTGTCAAGGTCGCTGACTTTGATGATTAACTGATGATCGTGGGATTCTGAGGTGGTGTTCGCGAGGGTGAAGGAGTTCCTTCCTGGAGACATCCGTGCCCCGGATGGCGGTCCACAATTCACGAGTGGGATGCGCAGTGGGTCGCGTGCTGCAACACCGAATGGAATACCGGGTGACCGGTATGTATGGCGGTGCGG (double strand) [aveRp]”, the binding result was “no binding”.
